Results from article PMC12646653.
These are yes or no findings as the source states them, for the method shown. In cells and extracts the contact can be indirect. Some entries that bind do so weakly or less than the wild type.

The chains behind the UniProt entries cited, without tags or fusion partners.
UniProt Q00532: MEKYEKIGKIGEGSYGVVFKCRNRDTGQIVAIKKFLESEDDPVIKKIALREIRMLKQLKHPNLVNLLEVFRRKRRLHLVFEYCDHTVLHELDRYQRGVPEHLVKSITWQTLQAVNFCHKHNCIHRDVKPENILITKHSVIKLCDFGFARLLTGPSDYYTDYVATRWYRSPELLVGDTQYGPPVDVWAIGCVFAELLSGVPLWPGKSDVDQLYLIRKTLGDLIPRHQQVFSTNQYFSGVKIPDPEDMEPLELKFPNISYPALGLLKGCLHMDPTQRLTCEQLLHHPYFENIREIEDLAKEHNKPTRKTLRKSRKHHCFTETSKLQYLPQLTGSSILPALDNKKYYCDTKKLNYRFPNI
UniProt Q9UG01: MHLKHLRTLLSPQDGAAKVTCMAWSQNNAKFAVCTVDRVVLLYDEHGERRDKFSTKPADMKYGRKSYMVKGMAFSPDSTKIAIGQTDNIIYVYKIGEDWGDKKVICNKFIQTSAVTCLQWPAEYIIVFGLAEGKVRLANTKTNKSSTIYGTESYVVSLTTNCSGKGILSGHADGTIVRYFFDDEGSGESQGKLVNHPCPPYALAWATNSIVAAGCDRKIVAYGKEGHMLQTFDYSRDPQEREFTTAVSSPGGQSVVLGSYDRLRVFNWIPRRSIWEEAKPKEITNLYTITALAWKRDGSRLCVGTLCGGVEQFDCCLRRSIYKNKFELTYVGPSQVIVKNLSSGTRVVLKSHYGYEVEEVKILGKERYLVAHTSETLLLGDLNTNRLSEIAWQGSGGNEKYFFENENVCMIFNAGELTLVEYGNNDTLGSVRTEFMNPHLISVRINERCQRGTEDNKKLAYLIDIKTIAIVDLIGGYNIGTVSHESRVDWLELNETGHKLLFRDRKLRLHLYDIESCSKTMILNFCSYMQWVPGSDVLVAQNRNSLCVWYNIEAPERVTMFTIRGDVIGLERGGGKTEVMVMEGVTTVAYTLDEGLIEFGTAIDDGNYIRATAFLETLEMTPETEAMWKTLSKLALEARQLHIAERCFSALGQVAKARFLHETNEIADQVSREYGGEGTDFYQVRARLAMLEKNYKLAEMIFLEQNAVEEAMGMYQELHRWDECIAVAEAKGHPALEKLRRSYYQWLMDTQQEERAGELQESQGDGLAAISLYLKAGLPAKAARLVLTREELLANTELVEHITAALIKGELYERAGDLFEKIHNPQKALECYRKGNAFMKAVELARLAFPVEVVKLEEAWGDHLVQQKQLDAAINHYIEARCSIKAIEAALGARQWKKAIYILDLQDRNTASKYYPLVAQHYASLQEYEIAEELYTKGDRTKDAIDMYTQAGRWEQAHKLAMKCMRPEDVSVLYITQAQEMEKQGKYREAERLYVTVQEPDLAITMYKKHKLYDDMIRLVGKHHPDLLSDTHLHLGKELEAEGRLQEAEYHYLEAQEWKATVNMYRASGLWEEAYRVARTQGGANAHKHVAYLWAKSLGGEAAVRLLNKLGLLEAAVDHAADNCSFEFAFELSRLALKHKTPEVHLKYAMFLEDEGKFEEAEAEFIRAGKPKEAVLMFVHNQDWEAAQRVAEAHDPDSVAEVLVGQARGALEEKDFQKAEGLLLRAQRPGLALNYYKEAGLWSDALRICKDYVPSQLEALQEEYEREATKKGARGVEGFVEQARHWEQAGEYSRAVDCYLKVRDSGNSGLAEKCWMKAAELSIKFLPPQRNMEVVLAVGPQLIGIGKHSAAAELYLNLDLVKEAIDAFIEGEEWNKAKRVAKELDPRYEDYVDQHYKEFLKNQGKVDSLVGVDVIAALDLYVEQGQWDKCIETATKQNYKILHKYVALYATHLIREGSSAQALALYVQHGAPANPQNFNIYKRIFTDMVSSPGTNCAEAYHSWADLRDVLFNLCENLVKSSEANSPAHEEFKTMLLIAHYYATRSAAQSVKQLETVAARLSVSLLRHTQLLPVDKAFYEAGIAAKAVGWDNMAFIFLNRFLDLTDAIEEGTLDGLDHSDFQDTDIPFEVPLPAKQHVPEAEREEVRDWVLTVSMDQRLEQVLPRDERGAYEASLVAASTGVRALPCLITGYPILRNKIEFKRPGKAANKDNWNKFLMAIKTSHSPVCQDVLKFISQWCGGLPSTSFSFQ

B1: CFAP20 (protein, UniProt Q9Y6A4 1-193)
chain: MFKNTFQSGFLSILYSIGSKPLQIWDKKVRNGHIKRITDNDIQSLVLEIEGTNVSTTYITCPADPKKTLGIKLPFLVMIIKNLKKYFTFEVQVLDDKNVRRRFRASNYQSTTRVKPFICTMPMRLDDGWNQIQFNLLDFTRRAYGTNYIETLRVQIHANCRIRRVYFSDRLYSEDELPAEFKLYLPVQNKAKQ
B2: IFT52 (protein, UniProt Q9Y366 1-437)
chain: MEKELRSTILFNAYKKEIFTTNNGYKSMQKKLRSNWKIQSLKDEITSEKLNGVKLWITAGPREKFTAAEFEILKKYLDTGGDVFVMLGEGGESRFDTNINFLLEEYGIMVNNDAVVRNVYHKYFHPKEALVSSGVLNREISRAAGKAVPGIIDEESSGNNAQALTFVYPFGATLSVMKPAVAVLSTGSVCFPLNRPILAFYHSKNQGGKLAVLGSCHMFSDQYLDKEENSKIMDVVFQWLTTGDIHLNQIDAEDPEISDYMMLPYTATLSKRNRECLQESDEIPRDFTTLFDLSIFQLDTTSFHSVIEAHEQLNVKHEPLQLIQPQFETPLPTLQPAVFPPSFRELPPPPLELFDLDETFSSEKARLAQITNKCTEEDLEFYVRKCGDILGVTSKLPKDQQDAKHILEHVFFQVVEFKKLNQEHDIDTSETAFQNNF

target: CDKL1 wild-type (cyclin-dependent kinase-like 1), EGFP-tagged (human) (UniProt Q00532); assay: co-IP; total lysates of HEK293T cells expressing EGFP-tagged CDKL1 variants or EGFP; IP with GFP-Trap beads; endogenous IFT52, IFT172, CFAP20 and TUBA1A detected by immunoblot; n = 3

binding, binds:
IFT172 (from UniProt Q9UG01 1-1749)
B1
B2
